Measured values from the supplement of paper PMC7661543.
The effect of the compound repeats well; differences between the knockouts mostly do not.

Test system: SKBR3
Test: relative cell number vs DMSO control (72 h) (% of DMSO); higher = less growth inhibition (more cells)
Protocol: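 QMAP-Seq: a pool of 5 breast cancer cell lines (ZR-75-1, SKBR3, HCC-38, MDA-MB-231, BT-20), each carrying 12 doxycycline-inducible Cas9 sgRNA perturbations (11 knockouts plus non-targeting sgNT), was treated with compounds for 72 h at four 10-fold doses (10 nM-10 uM or 1 nM-1 uM range). Barcodes were amplified and sequenced, and cell number was interpolated from 293T spike-in standard curves. The result is expressed as % of the median of DMSO wells. Two biological replicates.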

COc1cc2c(Oc3ccc4[nH]c(C)cc4c3F)ncnc2cc1OCCCN1CCCC1 [Cediranib]
Details | relative cell number
sgRNA knockout: sgATF3, 10 nM | 102.9
sgRNA knockout: sgATF3, 100 nM | 119
sgRNA knockout: sgATF3, 1000 nM | 98.7
sgRNA knockout: sgATF3, 10000 nM | 10.9
sgRNA knockout: sgATF4, 10 nM | 94.7
sgRNA knockout: sgATF4, 100 nM | 88.2
sgRNA knockout: sgATF4, 1000 nM | 91.4
sgRNA knockout: sgATF4, 10000 nM | 9.25
sgRNA knockout: sgATF6, 10 nM | 97.5
sgRNA knockout: sgATF6, 100 nM | 86.3
sgRNA knockout: sgATF6, 1000 nM | 86.6
sgRNA knockout: sgATF6, 10000 nM | 9.65
sgRNA knockout: sgATG7, 10 nM | 97
sgRNA knockout: sgATG7, 100 nM | 112
sgRNA knockout: sgATG7, 1000 nM | 98.7
sgRNA knockout: sgATG7, 10000 nM | 9.14
sgRNA knockout: sgERN1, 10 nM | 108.5
sgRNA knockout: sgERN1, 100 nM | 112
sgRNA knockout: sgERN1, 1000 nM | 103
sgRNA knockout: sgERN1, 10000 nM | 6.79
sgRNA knockout: sgHSF1, 10 nM | 68.2
sgRNA knockout: sgHSF1, 100 nM | 96.5
sgRNA knockout: sgHSF1, 1000 nM | 92.5
sgRNA knockout: sgHSF1, 10000 nM | 6.65
sgRNA knockout: sgHSF2, 10 nM | 96.4
sgRNA knockout: sgHSF2, 100 nM | 88.89
sgRNA knockout: sgHSF2, 1000 nM | 110
sgRNA knockout: sgHSF2, 10000 nM | 8.29
sgRNA knockout: sgKEAP1, 10 nM | 85.1
sgRNA knockout: sgKEAP1, 100 nM | 101
sgRNA knockout: sgKEAP1, 1000 nM | 79.7
sgRNA knockout: sgKEAP1, 10000 nM | 7.6
sgRNA knockout: sgNFE2L2, 10 nM | 101
sgRNA knockout: sgNFE2L2, 100 nM | 93.4
sgRNA knockout: sgNFE2L2, 1000 nM | 91.4
sgRNA knockout: sgNFE2L2, 10000 nM | 7.48
sgRNA knockout: sgSLC35F2, 10 nM | 106
sgRNA knockout: sgSLC35F2, 100 nM | 87.9
sgRNA knockout: sgSLC35F2, 1000 nM | 85.7
sgRNA knockout: sgSLC35F2, 10000 nM | 9.21
sgRNA knockout: sgXBP1, 10 nM | 95.6
sgRNA knockout: sgXBP1, 100 nM | 110
sgRNA knockout: sgXBP1, 1000 nM | 94.8
sgRNA knockout: sgXBP1, 10000 nM | 8.31

CN/C(=N\CCSCc1nc[nH]c1C)NC#N [Cimetidine]
Details | relative cell number
sgRNA knockout: sgATF3, 10 nM | 122
sgRNA knockout: sgATF3, 100 nM | 99.4
sgRNA knockout: sgATF3, 1000 nM | 106.6
sgRNA knockout: sgATF3, 10000 nM | 103
sgRNA knockout: sgATF4, 10 nM | 94.9
sgRNA knockout: sgATF4, 100 nM | 115
sgRNA knockout: sgATF4, 1000 nM | 93.8
sgRNA knockout: sgATF4, 10000 nM | 111
sgRNA knockout: sgATF6, 10 nM | 105
sgRNA knockout: sgATF6, 100 nM | 117
sgRNA knockout: sgATF6, 1000 nM | 93.01
sgRNA knockout: sgATF6, 10000 nM | 104
sgRNA knockout: sgATG7, 10 nM | 122
sgRNA knockout: sgATG7, 100 nM | 79.4
sgRNA knockout: sgATG7, 1000 nM | 88.8
sgRNA knockout: sgATG7, 10000 nM | 112
sgRNA knockout: sgERN1, 10 nM | 88
sgRNA knockout: sgERN1, 100 nM | 105
sgRNA knockout: sgERN1, 1000 nM | 102
sgRNA knockout: sgERN1, 10000 nM | 114.5
sgRNA knockout: sgHSF1, 10 nM | 110
sgRNA knockout: sgHSF1, 100 nM | 85.32
sgRNA knockout: sgHSF1, 1000 nM | 96.7
sgRNA knockout: sgHSF1, 10000 nM | 98.8
sgRNA knockout: sgHSF2, 10 nM | 89.9
sgRNA knockout: sgHSF2, 100 nM | 101
sgRNA knockout: sgHSF2, 1000 nM | 92.1
sgRNA knockout: sgHSF2, 10000 nM | 93
sgRNA knockout: sgKEAP1, 10 nM | 106
sgRNA knockout: sgKEAP1, 100 nM | 106
sgRNA knockout: sgKEAP1, 1000 nM | 91.9
sgRNA knockout: sgKEAP1, 10000 nM | 94.1
sgRNA knockout: sgNFE2L2, 10 nM | 103
sgRNA knockout: sgNFE2L2, 100 nM | 98
sgRNA knockout: sgNFE2L2, 1000 nM | 95.2
sgRNA knockout: sgNFE2L2, 10000 nM | 120
sgRNA knockout: sgSLC35F2, 10 nM | 99.1
sgRNA knockout: sgSLC35F2, 100 nM | 126
sgRNA knockout: sgSLC35F2, 1000 nM | 91.2
sgRNA knockout: sgSLC35F2, 10000 nM | 102
sgRNA knockout: sgXBP1, 10 nM | 113
sgRNA knockout: sgXBP1, 100 nM | 106
sgRNA knockout: sgXBP1, 1000 nM | 108
sgRNA knockout: sgXBP1, 10000 nM | 116

O=P1(N(CCCl)CCCl)NCCCO1 (configuration not stated) [Cyclophosphamide]
Details | relative cell number
sgRNA knockout: sgATF3, 10 nM | 89.8
sgRNA knockout: sgATF3, 100 nM | 109
sgRNA knockout: sgATF3, 1000 nM | 117
sgRNA knockout: sgATF3, 10000 nM | 82
sgRNA knockout: sgATF4, 10 nM | 119
sgRNA knockout: sgATF4, 100 nM | 94.6
sgRNA knockout: sgATF4, 1000 nM | 74.7
sgRNA knockout: sgATF4, 10000 nM | 78.3
sgRNA knockout: sgATF6, 10 nM | 109
sgRNA knockout: sgATF6, 100 nM | 89.3
sgRNA knockout: sgATF6, 1000 nM | 99.2
sgRNA knockout: sgATF6, 10000 nM | 76.5
sgRNA knockout: sgATG7, 10 nM | 94.3
sgRNA knockout: sgATG7, 100 nM | 85
sgRNA knockout: sgATG7, 1000 nM | 96
sgRNA knockout: sgATG7, 10000 nM | 92.5
sgRNA knockout: sgERN1, 10 nM | 84.6
sgRNA knockout: sgERN1, 100 nM | 94.1
sgRNA knockout: sgERN1, 1000 nM | 76.3
sgRNA knockout: sgERN1, 10000 nM | 89.4
sgRNA knockout: sgHSF1, 10 nM | 90.1
sgRNA knockout: sgHSF1, 100 nM | 97.01
sgRNA knockout: sgHSF1, 1000 nM | 78.7
sgRNA knockout: sgHSF1, 10000 nM | 107
sgRNA knockout: sgHSF2, 10 nM | 85.9
sgRNA knockout: sgHSF2, 100 nM | 75.9
sgRNA knockout: sgHSF2, 1000 nM | 94.6
sgRNA knockout: sgHSF2, 10000 nM | 86.68
sgRNA knockout: sgKEAP1, 10 nM | 108
sgRNA knockout: sgKEAP1, 100 nM | 84.4
sgRNA knockout: sgKEAP1, 1000 nM | 80
sgRNA knockout: sgKEAP1, 10000 nM | 84.9
sgRNA knockout: sgNFE2L2, 10 nM | 91.9
sgRNA knockout: sgNFE2L2, 100 nM | 102
sgRNA knockout: sgNFE2L2, 1000 nM | 94.6
sgRNA knockout: sgNFE2L2, 10000 nM | 94.6
sgRNA knockout: sgSLC35F2, 10 nM | 88.1
sgRNA knockout: sgSLC35F2, 100 nM | 99.8
sgRNA knockout: sgSLC35F2, 1000 nM | 95.6
sgRNA knockout: sgSLC35F2, 10000 nM | 91.11
sgRNA knockout: sgXBP1, 10 nM | 118
sgRNA knockout: sgXBP1, 100 nM | 98.4
sgRNA knockout: sgXBP1, 1000 nM | 92
sgRNA knockout: sgXBP1, 10000 nM | 88.5
